Assay results as given in PMC3136521.
Substitutions are numbered along the chain they refer to. These are yes or no findings as the source states them, for the method shown. Binding seen in cells or lysates may run through a third protein. Some binding calls cover weakened binding; strength is not graded here. Where a sequence is shown, tags or fusion partners need not be part of it. Each block holds one binder with its values, some of them ahead of it.

The chains behind the UniProt entries cited, without tags or fusion partners.
UniProt O75376: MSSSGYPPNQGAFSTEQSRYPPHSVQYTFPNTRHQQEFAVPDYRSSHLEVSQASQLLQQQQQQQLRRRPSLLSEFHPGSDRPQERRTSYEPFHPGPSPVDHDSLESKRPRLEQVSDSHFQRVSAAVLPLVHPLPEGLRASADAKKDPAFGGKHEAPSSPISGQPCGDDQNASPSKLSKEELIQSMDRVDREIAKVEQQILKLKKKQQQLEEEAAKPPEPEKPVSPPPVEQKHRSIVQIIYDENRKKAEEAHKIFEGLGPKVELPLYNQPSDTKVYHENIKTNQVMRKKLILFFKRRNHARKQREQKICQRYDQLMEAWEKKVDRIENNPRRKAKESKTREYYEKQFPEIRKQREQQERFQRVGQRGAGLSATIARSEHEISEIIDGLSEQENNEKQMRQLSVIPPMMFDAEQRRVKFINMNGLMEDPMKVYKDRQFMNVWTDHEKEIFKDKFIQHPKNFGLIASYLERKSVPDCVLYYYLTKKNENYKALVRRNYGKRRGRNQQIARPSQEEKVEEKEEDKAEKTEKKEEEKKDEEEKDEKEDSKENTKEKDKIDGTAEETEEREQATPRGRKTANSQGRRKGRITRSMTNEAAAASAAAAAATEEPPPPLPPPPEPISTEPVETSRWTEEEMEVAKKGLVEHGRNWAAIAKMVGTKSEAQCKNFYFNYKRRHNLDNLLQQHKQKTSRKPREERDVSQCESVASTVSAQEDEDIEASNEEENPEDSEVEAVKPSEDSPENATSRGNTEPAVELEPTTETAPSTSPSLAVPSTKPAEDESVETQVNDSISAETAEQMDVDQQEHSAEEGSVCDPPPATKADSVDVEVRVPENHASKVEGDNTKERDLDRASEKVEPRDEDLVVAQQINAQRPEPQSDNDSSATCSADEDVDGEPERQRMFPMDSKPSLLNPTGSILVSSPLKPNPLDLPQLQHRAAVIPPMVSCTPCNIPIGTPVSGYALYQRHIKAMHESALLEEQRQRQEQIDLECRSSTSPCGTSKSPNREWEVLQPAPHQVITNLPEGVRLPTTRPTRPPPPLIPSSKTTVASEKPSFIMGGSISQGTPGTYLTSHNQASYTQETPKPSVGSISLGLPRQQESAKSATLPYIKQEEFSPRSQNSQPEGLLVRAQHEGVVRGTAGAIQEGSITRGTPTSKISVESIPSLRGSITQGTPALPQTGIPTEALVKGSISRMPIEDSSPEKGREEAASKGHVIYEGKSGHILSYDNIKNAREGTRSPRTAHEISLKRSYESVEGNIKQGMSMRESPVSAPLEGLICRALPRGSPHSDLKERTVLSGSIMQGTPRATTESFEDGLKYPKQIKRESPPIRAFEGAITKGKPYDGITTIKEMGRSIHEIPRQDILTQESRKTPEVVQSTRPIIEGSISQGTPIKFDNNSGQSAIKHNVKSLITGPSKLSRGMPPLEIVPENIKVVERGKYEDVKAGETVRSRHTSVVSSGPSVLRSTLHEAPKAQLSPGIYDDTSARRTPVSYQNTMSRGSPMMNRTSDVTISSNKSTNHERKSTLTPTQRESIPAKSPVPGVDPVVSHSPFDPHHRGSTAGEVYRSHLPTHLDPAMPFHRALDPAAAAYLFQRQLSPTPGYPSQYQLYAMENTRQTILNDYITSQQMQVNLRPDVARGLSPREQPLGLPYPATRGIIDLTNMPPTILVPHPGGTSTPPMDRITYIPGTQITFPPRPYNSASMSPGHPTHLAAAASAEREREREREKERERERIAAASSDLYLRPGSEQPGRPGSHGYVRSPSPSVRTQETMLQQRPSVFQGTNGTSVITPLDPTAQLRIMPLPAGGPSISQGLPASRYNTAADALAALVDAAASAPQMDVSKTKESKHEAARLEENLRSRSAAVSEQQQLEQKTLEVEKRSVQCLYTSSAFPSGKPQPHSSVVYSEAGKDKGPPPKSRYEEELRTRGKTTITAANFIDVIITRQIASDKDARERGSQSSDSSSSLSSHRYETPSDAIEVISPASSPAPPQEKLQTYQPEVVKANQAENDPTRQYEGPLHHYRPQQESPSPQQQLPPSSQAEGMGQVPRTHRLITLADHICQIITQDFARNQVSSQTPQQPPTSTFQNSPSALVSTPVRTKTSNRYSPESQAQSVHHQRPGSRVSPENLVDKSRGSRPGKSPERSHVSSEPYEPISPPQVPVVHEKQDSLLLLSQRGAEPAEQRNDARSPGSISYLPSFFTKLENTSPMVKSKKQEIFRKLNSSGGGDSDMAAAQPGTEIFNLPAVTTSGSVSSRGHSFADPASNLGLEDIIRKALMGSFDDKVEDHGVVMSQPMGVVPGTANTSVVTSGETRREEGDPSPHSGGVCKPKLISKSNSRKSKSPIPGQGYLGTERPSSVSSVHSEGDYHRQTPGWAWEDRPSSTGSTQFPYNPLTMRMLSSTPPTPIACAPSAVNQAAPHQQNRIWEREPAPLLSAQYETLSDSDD

Target: N-CoR transcriptional co-repressor (UniProt O75376)
Experiment: co-IP; 293T cells co-transfected with N-CoR and N-terminal myc-tagged SMYD3 constructs; RIPA whole cell lysates 48 h after transfection; anti-N-CoR immunoprecipitation, Western with anti-myc

binding: binds
B1: N-terminal myc-tagged SMYD3, wildtype (enzyme, UniProt Q9H7B4 1-428)
chain: MEPLKVEKFATAKRGNGLRAVTPLRPGELLFRSDPLAYTVCKGSRGVVCDRCLLGKEKLMRCSQCRVAKYCSAKCQKKAWPDHKRECKCLKSCKPRYPPDSVRLLGRVVFKLMDGAPSESEKLYSFYDLESNINKLTEDKKEGLRQLVMTFQHFMREEIQDASQLPPAFDLFEAFAKVICNSFTICNAEMQEVGVGLYPSISLLNHSCDPNCSIVFNGPHLLLRAVRDIEVGEELTICYLDMLMTSEERRKQLRDQYCFECDCFRCQTQDKDADMLTGDEQVWKEVQESLKKIEELKAHWKWEQVLAMCQAIISSNSERLPDINIYQLKVLDCAMDACINLGLLEEALFYGTRTMEPYRIFFPGSHPVRGVQVMKVGKLQLHQGMFPQAMKNLRLAFDIMRVTHGREHSLIEDLILLLEECDANIRAS

binding: no binding
B2: N-terminal myc-tagged SMYD3 MYND domain point mutant C49/S (enzyme, UniProt Q9H7B4 1-428)
chain: B1 chain with C49S
